Where “and” joins values, the source holds several entries; their conditions need not be identical. Identical values can stand only once. Some of the results follow. Each value is one well over the wells without odorant, computed here; the data are noisy.
What was measured:
Test in all cases: odorant receptor activation (CRE luciferase / Renilla) (fold of no-odor wells); higher = more activation
Conditions in all cases: 100 µM
[1] = test system: OR2T5 clone 1495
[2] = test system: OR2T5 clone 1496
[3] = test system: OR2T6 N21D/C23G/S243A clone 1432
[4] = test system: OR2T8 clone 1576
[5] = test system: OR2V1 clone 1718
[6] = test system: OR2W1 D296N clone 1536
[7] = test system: OR2W1 clone 1067
[8] = test system: OR2W3 Indel clone 1491
[9] = test system: OR2W5 clone 1506
[10] = test system: OR2Y1 V200L clone 1069

SMILES	odorant receptor activation [1]	odorant receptor activation [2]	odorant receptor activation [3]	odorant receptor activation [4]	odorant receptor activation [5]	odorant receptor activation [6]	odorant receptor activation [7]	odorant receptor activation [8]	odorant receptor activation [9]	odorant receptor activation [10]
C=C(C)C1CC=C(C)C(=O)C1 (stereo not given) [r-carvone]	0.955	1.04	0.992	0.72	0.665	2.54	1.13 and 2.28	0.793	1.02	0.794
COc1ccccc1O [guaiacol]	0.725 and 1.29	1.3 and 0.938	0.758	0.923	0.839	1.22 and 1.26	1.4 and 0.899	0.706 and 1.66	1.02 and 1.26	2.62
CC(=O)OC1CC2CCC1(C)C2(C)C (stereo not given) [isobornyl acetate]	0.752 and 1.08	1.57 and 0.872	0.876	1.04	1.15	1.18 and 0.921	1.16 and 0.652	0.774 and 1.36	0.929 and 1.29	0.827
CCCCCCCCCCC=O [undecanal]	1.06	1.27	0.94	0.94	1.19	1.19	1.19 and 1.11	0.968	0.857	0.861
CCCCCCCCC=O [nonyl aldehyde]	1.5	1.43	1.14	0.62	0.675	1.95	1.3 and 2.01	1	1.04	1.22
CC=Cc1ccc(O)c(OC)c1 [isoeugenol]	0.97 and 1.67	2.08 and 1.83	1.49	5.06	4.44	1.25 and 1.72	2.61 and 0.898	1.38 and 2.53	1.01 and 1.57	1.43
O=C1CCCCCCCCCCCC(=O)OCCO1 [ethylene brassylate]	1.47	1.27	1.85	1.02	1.35	0.649	0.408 and 0.772	1.08	1.13	1.33
C=CCc1ccc(OC(C)=O)c(OC)c1 [eugenol acetate]	1.71	1.62	1.45	2.61	2.18	1.51	1.15 and 1.51	1.39	1.52	1.64
CCCC(=O)O [butyric acid]	0.83	0.923	0.177	1.13	0.854	0.872	0.699 and 1.07	0.817	0.946	1.55
c1ccc(Oc2ccccc2)cc1 [diphenyl ether]	0.993	1.26	0.979	0.827	0.771	1.53	1.79 and 1.85	1.21	1.09	0.857
COC(=O)c1ccccc1O [methyl salicylate]	1.09	1.19	1.12	0.834	0.903	1.29	1.1 and 1.55	0.778	0.996	1.23
C=CCc1ccc(OC)c(OC)c1 [eugenol methyl ether]	1.15	1.26	1.46	0.646	0.894	1.43	1.05 and 1.58	1.35	0.99	1.48
C=CCSCC=C [diallyl sulfide]	1.07	1.38	1.21	0.77	0.81	1.23	1.61 and 1.06	0.928	0.917	1.11
CC12CCC(C1)C(C)(C)C2=O (stereo not given) [fenchone]	1.15	1.02	0.969	0.929	0.882	1.04	0.835 and 0.953	0.925	1.01	1.11
CC(C)CC(=O)O [isovaleric acid]	1.03	1.06	0.856	0.881	1.08	0.86	0.964 and 1.25	0.872	0.825	1.42
O=CCc1ccccc1 [phenyl acetaldehyde]	1.18	1.51	1.37	1.53	1.45	0.958	0.804 and 1.21	0.894	1.07	1.18
CC(C)CCC(=O)O [4-methylvaleric acid]	1.05	0.966	1.29	0.573	0.921	1.01	1.35 and 1.15	1	1.14	1.45
COc1cc(C)ccc1O [2-methoxy-4-methylphenol]	0.79	0.861	1.22	0.671	0.908	0.968	1.38 and 1.55	0.794	1	1.42
C=CC(C)(O)CCC=C(C)C (stereo not given) [linalool]	1.24	1.08	0.995	0.902	1.15	1.39	1.01 and 1.82	1.06	0.91	1.36
CCCCCC(=O)O [caproic acid]	0.914	0.975	0.151	0.752	0.766	1.1	1.23 and 0.863	1.09	1.24	1.35
COc1cc(C=O)ccc1O [vanillin]	0.847	1.45	0.849	0.67	0.795	1.11	1.91 and 1.01	0.995	0.839	0.756
CC(=O)C(C)=O [diacetyl]	1.09	1.16	1.22	0.779	0.765	1.27	1.41 and 1.06	1.1	1.15	1.06
CCCCCCCC=CC=O [2-decenal]	1.23	1.25	1.01	0.851	1.12	1.3	1.4	1.63	1.56	4.15
c1cnccn1 [pyrazine]	0.737	1.19	1.07	0.951	0.661	0.966	1.17 and 0.949	0.635	0.768	0.846
CC1CCC(C(C)C)C(O)C1 (single isomer, unassigned; (+)) [(+)-menthol]	0.956	1.17	1.08	0.617	0.884	2.04	3.96 and 2.3	1.04	1.12	3.19
CCCCO [1-butanol]	1.19	1.15	1.11	0.672	1.08	1.26	1.61 and 1.96	1.09	1.3	2.7
